The record followed here is patent US11098257B2, “Bioderived fuels and methods of making the same” (Alliance for Sustainable Energy, LLC, priority 2019, dated 2021).

A short description of data set [1]: Yield sooting index measurement in doped methane/air flame. The note with it: measured value; scale YSI-heptane=36, YSI-toluene=170.9.
A short description of data set [2]: Cetane number (ICN) measured in an AFIDA, ASTM D8183. The note with it: measured value (outside parentheses).

`CCCCOC(CCC)CCC` [4-butoxyheptane]: in data set [1], the “Yield Sooting Index” value worked out at 58. Moreover, the entries for the “Cetane Number” value in data set [2] and in data set [2] (listed as drawing 5) were 80.0 and 80, respectively.
As for `CCCCCCOC(CCC)CCC` [4-hexoxyheptane], the “Yield Sooting Index” value in data set [1] is 75.
For `CCCCCC(CCCCC)OCC` [6-ethoxyundecane], in data set [1], the “Yield Sooting Index” value was 70.
